The assay is described as follows: qHTS Assay for Lipid Storage Modulators in Drosophila S3 Cells.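 For cell number change: cells counted by Cell Tracker Red CMTPX staining in the red channel.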 Particulars: BODIPY lipid droplet fluorescence, 18-24 h; for cell number change: measured here: cell count max response, cells fed with added oleic acid. A digest of the protocol:
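Drosophila S3 cells got compounds at several concentrations plus oleic acid (400 uM solution). Laser-scanning cytometry with 488 nm excitation read lipid droplets at 500-530 nm and cells at 575-640 nm. Percent activity was relative to 20 uM Triacsin C.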
On the technique in general: qHTS replaces the single test concentration by a dilution series.

Where [1] appears, read: measured here: cell number channel AC50, cells fed with added oleic acid.
Setting [2] is: measured here: lipid fluorescence (Fed channel) AC50, cells fed with added oleic acid.

The list shows a part of the results. The main result of the screen is listed elsewhere. These columns were measured beside it and carry no call. Compounds called inactive in the main read-out are mostly missing here. Potencies come from curve fits of mixed quality, noted in brackets.

As a reminder, the AC50 is the concentration at which the activity in the assay is half-maximal. With `COc1ccc(CC(=O)Nc2ccc(OC)c(NC(=O)c3ccco3)c2)cc1`, the cell number change was 118%. The AC50 under setting [1] was 0.082 µM [rising, single point]. Under setting [2], the AC50 is 0.58 µM [rising, single point].

As to `Cc1ccccc1-c1nnc(SCC(=O)NCc2ccc3c(c2)OCO3)n1C`, the cell number change is 59.5%. In addition, the half-maximal activity concentration (AC50) under setting [1] is 16.4 µM [rising, partial curve].

`CCOc1ccc(NC(=O)NNC(=O)c2ccc3ccccc3c2O)cc1`: the AC50 under setting [2] is 8.91 µM [rising, full curve, poor fit].

Take `O=C(NC(=S)NNC(=O)c1ccccc1O)c1ccc(F)cc1`: the cell number change is -20.8%. Moreover, the concentration at half-maximal activity (AC50) under setting [2] was 29.1 µM [falling, single point].

Consider `CC(C)N(C(=O)COC(=O)c1cncc(Br)c1)C(C)C`, for which the cell number change was -32.9%.

As to `COc1ccc(Nc2nc(N3CCCCC3)nc3ccccc23)c(OC)c1`, the cell number change is -57.3%. Besides, the concentration at half-maximal activity (AC50) under setting [2] was 1.3 µM [rising, partial curve].

With `CC(=O)Nc1ccc(/C=C/c2nc(-c3ccccc3O)n[nH]2)cc1`, the cell number change is -57.5%. In addition, under setting [1], the half-maximal activity concentration (AC50) is 20.6 µM [falling, single point]. Also, under setting [2], the AC50 was 18.4 µM [falling, single point].

On to `COc1cc2c(cc1OC)-c1nnc(-c3ccco3)n1C1(CCCC1)C2`, for which the cell number change is -23.6%. Also, under setting [2], the half-maximal activity concentration (AC50) was 8.2 µM [falling, partial curve, poor fit].

On to `Cc1cc(C)n2nc[n+](C)c2n1`, for which the cell number change came to 45.4%.

Regarding `C=CCn1cccc(C(=O)Nc2ccc(OCC)cc2)c1=O`, the AC50 was 3.66 µM [rising, partial curve] under setting [1] and 6.51 µM [rising, single point] under setting [2].

Take `CCOC(=O)c1sc(-c2ccc(OC)cc2)cc1NC(C)=O`: the cell number change was -44.5%. Further, the AC50 under setting [1] is 18.4 µM [falling, single point].

With `CCC(=O)OC1CC(C)N(C(=O)c2ccccc2)c2ccc(C)cc21` (stereo not given), the AC50 under setting [1] is 0.231 µM [rising, partial curve, poor fit].

Regarding `O=C(CCl)N1CCN2C(=O)c3ccccc3C12c1ccc(Cl)cc1` (stereo not given), the cell number change was -58%. The concentration at half-maximal activity (AC50) under setting [1] is 6.51 µM [falling, partial curve, poor fit]. The AC50 under setting [2] was 6.51 µM [falling, single point].

For the compound `O=c1c2ccccc2ncn1CCOCCOc1ccc([N+](=O)[O-])cc1`, the AC50 under setting [1] is 4.11 µM [falling, single point] and the AC50 under setting [2] is 1.84 µM [falling, partial curve].

On to `Cc1ccc(NC(=S)NC(=O)Cc2ccccc2)c(O)c1`, for which the half-maximal activity concentration (AC50) under setting [2] is 3.66 µM [rising, full curve].

As for `Cc1ccccc1-n1nc(SCC(=O)O)sc1=S`, the cell number change is -33.3%.

Regarding `CCn1c(CNC(=O)c2cccnc2)cc2ccccc21`, the cell number change is -6.04%. The AC50 under setting [2] is 6.51 µM [rising, single point].

On to `CCCCC(NC(=O)Cc1c(C)c2cc3c4c(oc3cc2oc1=O)CCCC4)C(=O)O` (stereo not given), for which the cell number change was determined as 3.78%. Besides, the half-maximal activity concentration (AC50) under setting [2] is 6.51 µM [falling, partial curve, poor fit].

For the compound `CC1CCCCC1NC(=S)Nc1ccc(Cl)cc1Cl` (stereo not given), the cell number change was -32.3%.

Turning to `CCOc1ccc2c(c1)OC(c1ccccc1)(C(F)(F)F)NC2=O` (stereo not given), the cell number change is 24.3%. Moreover, under setting [1], the concentration at half-maximal activity (AC50) was 0.116 µM [rising, full curve, poor fit]. Besides, the AC50 under setting [2] was 0.58 µM [rising, single point].

In the case of `CCOc1ccccc1NC(=O)C(CC)Sc1nc2ccsc2c(=O)n1CCC(=O)O` (stereo not given), the cell number change is -38.4%. Also, the AC50 under setting [1] was 20.6 µM [falling, single point]. The half-maximal activity concentration (AC50) under setting [2] is 23.1 µM [falling, partial curve].

For `CCOc1ccc(C(N)=O)cc1OC`, the cell number change is -61.1%. Under setting [1], the concentration at half-maximal activity (AC50) was 32.6 µM [falling, single point].

As for `COc1ccc(-c2nc3ccccn3c2NC2CCCCC2)cc1SC1CCCCC1`, the cell number change was -62%. Moreover, the concentration at half-maximal activity (AC50) under setting [1] is 23.1 µM [falling, single point]. Further, the half-maximal activity concentration (AC50) under setting [2] was 29.1 µM [falling, single point].

On to `FC(F)Sc1ccc(NC(=S)NCC2CCCCC2)cc1`, for which the cell number change was -38%. The AC50 under setting [1] was 1.64 µM [falling, partial curve]. Also, the AC50 under setting [2] is 20.6 µM [falling, single point].

As to `O=C(C1CCCCC1)N(Cc1ccccc1)c1ccccn1`, the cell number change was found to be 8.43%. In addition, the AC50 under setting [2] is 16.4 µM [rising, single point].

For the compound `CC1(C)CC(NC(=O)c2cccc(S(=O)(=O)N(Cc3ccccc3)c3ccccc3)c2)CC(C)(C)N1`, the cell number change stood at 0.776%. Also, the AC50 under setting [2] is 0.58 µM [falling, partial curve].

`CNCc1ccccc1Sc1cccc(O)c1`: the cell number change is 2.02%. Besides, the half-maximal activity concentration (AC50) under setting [1] was 0.116 µM [falling, partial curve, poor fit]. For the same compound, the AC50 under setting [2] is 0.082 µM [falling, full curve, poor fit].

Turning to `CCCCNS(=O)(=O)c1ccc2nc(SCC(=O)Nc3cc(C)cc(C)c3)[nH]c2c1`, the cell number change is 17.9%. Moreover, the AC50 under setting [2] is 0.116 µM [falling, partial curve, poor fit].

For `CCOc1ccc2nc(SC(C)C(N)=O)[nH]c2c1` (stereo not given), the AC50 under setting [2] was 7.31 µM [falling, partial curve, poor fit].

For the compound `CCCCCCc1c(O)nc(SCC(=O)O)[nH]c1=O`, the cell number change amounted to 14.6%. Also, the half-maximal activity concentration (AC50) under setting [1] is 6.51 µM [rising, single point]. The AC50 under setting [2] was 6.51 µM [rising, single point].

Consider `O=C(NC12CC3CC(CC(C3)C1)C2)c1cc2nc(-c3ccco3)cc(C(F)(F)F)n2n1`, for which the cell number change was 68.6%. Also, the AC50 under setting [1] was 18.4 µM [rising, partial curve].

As for `CN1/C(=C\C=N\NC(=O)c2ccccc2Br)C(C)(C)c2ccccc21`, the cell number change turned out to be 1.19%. Moreover, under setting [1], the AC50 is 6.51 µM [falling, partial curve, poor fit]. Also, under setting [2], the concentration at half-maximal activity (AC50) was 2.06 µM [rising, partial curve].

For the compound `Cc1c(-n2c(=O)n(Cc3ccccc3)c(=O)c3[nH]cnc32)cccc1S(C)=O` (stereo not given), the cell number change is -19.4%. Further, the AC50 under setting [2] was 0.58 µM [falling, single point].

As for `O=C1C2C3C=CC(C2C(=O)N1CCO)C1C(=O)N(CCO)C(=O)C31` (stereo not given), the cell number change is -16.7%. Moreover, under setting [2], the AC50 is 0.00651 µM [falling, full curve, poor fit].

Take `CC(C)c1ccc(S(=O)(=O)N2CCC3(CC2)OCCO3)cc1`: the cell number change is -11.6%. The concentration at half-maximal activity (AC50) under setting [2] was 29.1 µM [falling, single point].

On to `CCOC(=O)c1c(C=O)c(C)n(Cc2ccc(C)cc2)c1C`, for which the cell number change is -23.5%. The concentration at half-maximal activity (AC50) under setting [2] was 0.92 µM [rising, full curve, poor fit].

For the compound `Cc1c(NC(=S)N/N=C/c2ccc([N+](=O)[O-])cc2O)c(=O)n(-c2ccccc2)n1C`, the cell number change was 51.6%. Moreover, under setting [1], the concentration at half-maximal activity (AC50) was 7.31 µM [rising, partial curve].

Turning to `Cc1ccc(NC(=O)CSc2nnc(-c3ccccc3C)o2)cc1C`, the cell number change amounted to 31.5%. Also, under setting [1], the AC50 is 5.8 µM [rising, full curve, poor fit]. Also, under setting [2], the AC50 is 3.26 µM [rising, single point].

Regarding `CC(=O)Oc1ccc(/C=C2/CCc3ccccc3C2=O)cc1`, the cell number change is -16.6%.

Regarding `CCn1c(=O)c(C(=O)CN2CCN(S(=O)(=O)c3ccccc3)CC2)c(N)n(Cc2ccccc2)c1=O`, the cell number change stood at 2.37%. In addition, the AC50 under setting [1] is 6.51 µM [rising, single point].

As for `CCOC(=O)c1cnc2nc(C)nn2c1N`, the cell number change is -16.7%. Also, the half-maximal activity concentration (AC50) under setting [2] was 23.1 µM [falling, single point].

Regarding `O=C(O)C1(NS(=O)(=O)c2ccc(F)c(Cl)c2)CCCCC1`, the cell number change was 7.05%.

On to `O=C(NCCN1CCCC1)c1ccc(CS(=O)(=O)c2c(Cl)cccc2Cl)o1`, for which the cell number change was determined as 1.45%.

On to `Cc1cnc(C(=O)NCc2ccc(F)cc2)cn1`, for which the cell number change stood at 20%. Moreover, the concentration at half-maximal activity (AC50) under setting [1] is 6.51 µM [rising, single point].

`CCOC(=O)c1c(C)oc2cc(Br)c(O)c(Br)c12`: the cell number change is -43.6%. Also, the concentration at half-maximal activity (AC50) under setting [1] is 32.6 µM [falling, partial curve]. Further, under setting [2], the AC50 was 23.1 µM [falling, partial curve].

`O=C(O)C1CCCCC1C(=O)Nc1ccc(Cl)cc1Cl` (stereo not given): the cell number change was -54.1%. In addition, the AC50 under setting [1] is 29.1 µM [falling, single point].

`COc1ccc(-c2cc(-c3nnc(COC(=O)CC4CCCC4)o3)c3ccccc3n2)cc1OC`: the cell number change was 25.3%. In addition, the AC50 under setting [1] was 2.06 µM [rising, full curve, poor fit]. The AC50 under setting [2] is 1.84 µM [rising, full curve, poor fit].

As for `Cc1cccc(-n2cc(CNCCN3CCOC3=O)c(-c3cccc(F)c3)n2)c1`, the cell number change turned out to be 14.3%. Also, the concentration at half-maximal activity (AC50) under setting [2] is 7.31 µM [rising, partial curve, poor fit].

For the compound `NNC(=O)c1ccc(O)cc1O`, the AC50 under setting [2] was 2.31 µM [rising, full curve].

`CCCc1cc(=O)n2[nH]c(-c3ccc(Cl)cc3)cc2n1`: the cell number change was -30.4%. Besides, the AC50 under setting [1] was 29.1 µM [falling, single point].

Regarding `O=C(NCCC(=O)N1CCCCCCC1)c1ccc(Br)cc1`, the cell number change worked out at 12.9%. Moreover, the AC50 under setting [1] is 0.82 µM [falling, full curve]. Moreover, the concentration at half-maximal activity (AC50) under setting [2] was 0.82 µM [falling, full curve].

As for `O=S(=O)(c1ccc(Cl)cc1)n1c(Cc2ccccc2)nc2ccccc21`, the cell number change is -4.05%. Besides, the concentration at half-maximal activity (AC50) under setting [2] was 29.1 µM [rising, single point].

Regarding `Cc1nn(C)cc1CNC(=O)Nc1cccc(Cl)c1`, the cell number change was 21.8%. In addition, the half-maximal activity concentration (AC50) under setting [1] is 6.51 µM [falling, single point].

Consider `CCc1ccc(-c2csc(NC(=O)C3CC(=O)N(c4ccc5c(c4)OCCO5)C3)n2)cc1` (stereo not given), for which the cell number change was -3.6%. The concentration at half-maximal activity (AC50) under setting [1] is 0.82 µM [rising, full curve, poor fit].

Take `CCOC(=O)c1sc(NC(=O)CSc2nncn2C)nc1C`: the concentration at half-maximal activity (AC50) under setting [2] was 9.2 µM [rising, partial curve].

Take `CS(=O)(=O)N1CCC(C(=O)Nc2ccc(F)c(Cl)c2)CC1`: the cell number change is -7.33%. Moreover, the AC50 under setting [2] is 6.51 µM [rising, single point].

Take `CCc1sc(C(=O)Nc2cc(Cl)ccc2N2CCCCC2)cc1C`: the concentration at half-maximal activity (AC50) under setting [2] is 3.66 µM [rising, single point].

In the case of `CCSc1cc(C)nc2ncnn12`, the cell number change is 43%. Further, the concentration at half-maximal activity (AC50) under setting [1] is 29.1 µM [rising, single point]. Moreover, the AC50 under setting [2] is 29.1 µM [rising, single point].

With `Cc1cc(F)ccc1S(=O)(=O)Nc1ccccc1C(=O)Nc1ccccc1-c1nc2ccccc2[nH]1`, the cell number change is -83.6%. The half-maximal activity concentration (AC50) under setting [1] is 29.1 µM [falling, single point]. Moreover, the AC50 under setting [2] was 0.731 µM [falling, single point].

The values are drawn from PubChem BioAssay AID2685 (National Center for Advancing Translational Sciences (NCATS), 2010).
